We go through two molecules from publication PMC7998926 (Microorganisms, 2021).

Read-outs that look alike come from different tables or passages of the source.

The test system of one assay is EBOV/Mak. The settings on record: read-out: IC50 (Huh7); cited from earlier work.
The subject of assay [1] is EBOV. The experiment in a line: microbe, parasite or virus in culture. Format: cell-based, Ebola virus. The settings on record: Zaire ebolavirus, read-out: IC50 (average) (μM).
Assay [2] concerns EBOV. The settings on record: read-out: IC50 (HepG2); cited from earlier work.

Turning to `O=C1CCc2ccc(OCCCCN3CCN(c4cccc(Cl)c4Cl)CC3)cc2N1` [Aripiprazole], the figures for the IC50 in the assay with EBOV/Mak, with EBOV [1] and in the assay with EBOV [2] were 7.8 µM, 5.78 µM and 3.76 µM, respectively.

Turning to `CCN(CC)CCOc1ccc(C(=C(Cl)c2ccccc2)c2ccccc2)cc1` [Clomiphene], the IC50 in the assay on EBOV/Mak is 1.96 µM; with EBOV [1], 1.36 µM; with EBOV [2], 0.76 µM.

As usually defined, the IC50 is the concentration that inhibits the measured activity by half.
